Results deposited as PubChem BioAssay AID1159584 (Peter MacCallum Cancer Centre, 2016).

- Purpose: 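Knock-downs that harm CDH1-null cells more than parental MCF10A cells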 (primary screen)
- Cell system: human MCF10A breast epithelial cells, parental and CDH1-null
- Reagent: siRNA against human genes
- Measurement: 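Cell viability by CellTiter-Glo ATP luminescence, each line scaled to the mean of mock wells across plates, then CDH1-null over parental ratio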
- Direction: CDH1-null / parental viability ratio: higher = CDH1-null cells survive relatively better than parental
In all, the deposit lists about 18,000 reagents; below is a random part of them. Not all columns of the deposit are shown. Not given: the amount of reagent, the time to read-out.

PDXP (pyridoxal phosphatase) — CDH1-null / parental viability ratio = 1.1
ITSN2 (intersectin 2) — CDH1-null / parental viability ratio = 0.72
LCN12 (lipocalin 12) — CDH1-null / parental viability ratio = 0.92
PPDPFL — CDH1-null / parental viability ratio = 0.92
RFTN1 (raftlin, lipid raft linker 1) — CDH1-null / parental viability ratio = 1.12
XRCC1 (X-ray repair cross complementing 1) — CDH1-null / parental viability ratio = 0.91
PAM16 (presequence translocase associated motor 16) — CDH1-null / parental viability ratio = 0.8
ALDH8A1 (aldehyde dehydrogenase 8 family member A1) — CDH1-null / parental viability ratio = 0.79
TMCO5A (transmembrane and coiled-coil domains 5A) — CDH1-null / parental viability ratio = 0.83
PSG11 (pregnancy specific beta-1-glycoprotein 11) — CDH1-null / parental viability ratio = 0.87
ZYX (zyxin) — CDH1-null / parental viability ratio = 0.95
FZD5 (frizzled class receptor 5) — CDH1-null / parental viability ratio = 0.86
C1QC (complement C1q C chain) — CDH1-null / parental viability ratio = 0.72
KCNF1 — CDH1-null / parental viability ratio = 1.21
ARSK (arylsulfatase family member K) — CDH1-null / parental viability ratio = 1.19

Looked up above.
ZYX (zyxin), CDH1-null / parental viability ratio → 0.95
ITSN2 (intersectin 2), CDH1-null / parental viability ratio → 0.72
Result for PAM16 (presequence translocase associated motor 16) under “CDH1-null / parental viability ratio”: 0.8
Entry for ALDH8A1 (aldehyde dehydrogenase 8 family member A1) in “CDH1-null / parental viability ratio”: 0.79

Additional records:
PRR15L (proline rich 15 like) — CDH1-null / parental viability ratio = 0.82
JAM3 (junctional adhesion molecule 3) — CDH1-null / parental viability ratio = 1.18
LCLAT1 (lysocardiolipin acyltransferase 1) — CDH1-null / parental viability ratio = 1.04
SPANXA1 — CDH1-null / parental viability ratio = 1.79
HMX1 (H6 family homeobox 1) — CDH1-null / parental viability ratio = 0.95
GRN (granulin precursor) — CDH1-null / parental viability ratio = 0.89
ABI3 (ABI family member 3) — CDH1-null / parental viability ratio = 1.2
PSMD14 (proteasome 26S subunit, non-ATPase 14) — CDH1-null / parental viability ratio = 1.49
ATG2A (autophagy related 2A) — CDH1-null / parental viability ratio = 1.32
